Laboratory results: PubChem BioAssay AID1259354 (Paczesny and Yang Labs, IUPUI and University of Michigan, 2018)
Screen size: about 78,000 compounds; about 1,800 (2.3%) were called active. This list was built around the results that the source calls inconclusive (neither active nor inactive); the mix of calls is not that of the screen. Cut-off read from the data, not from the text of the source: active = inhibition above about 30%; inconclusive = mostly about 10% to 28%; inactive = weaker than that.

Chains of the proteins cited; added tags and fusions are not shown. Lines headed by an entry give the natural chain unless they say otherwise; changes in a name come on top.
UniProt Q01638: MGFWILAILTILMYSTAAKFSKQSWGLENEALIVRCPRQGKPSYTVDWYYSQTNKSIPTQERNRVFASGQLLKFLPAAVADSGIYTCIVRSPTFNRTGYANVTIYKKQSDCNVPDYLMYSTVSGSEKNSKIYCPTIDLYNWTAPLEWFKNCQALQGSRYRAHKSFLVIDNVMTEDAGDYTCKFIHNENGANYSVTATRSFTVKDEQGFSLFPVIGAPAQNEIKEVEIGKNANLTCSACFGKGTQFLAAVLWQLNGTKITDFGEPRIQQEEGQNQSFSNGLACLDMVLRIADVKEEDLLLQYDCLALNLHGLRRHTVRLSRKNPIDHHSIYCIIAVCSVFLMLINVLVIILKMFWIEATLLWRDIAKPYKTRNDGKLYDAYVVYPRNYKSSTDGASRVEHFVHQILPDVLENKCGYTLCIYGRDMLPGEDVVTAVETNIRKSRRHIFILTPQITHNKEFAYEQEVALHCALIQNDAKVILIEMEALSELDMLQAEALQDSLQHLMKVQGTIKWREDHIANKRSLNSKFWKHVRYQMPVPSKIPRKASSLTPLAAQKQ

target: Interleukin-1 receptor-like 1 (Homo sapiens) (UniProt Q01638); assay: inhibitors of human ST2 (IL1RL1) binding to IL-33, primary screen, biochemical, AlphaLISA (AID 1259354); settings: AlphaLISA ST2-Fc/biotin-IL-33 interaction, 1 h; at 17 µM, active compounds read high

| Structure (SMILES) | inhibition |
| --- | --- |
| O=C(CCC(F)(F)F)N1CCCC2(CCNC2)C1 (centres undefined) | inactive |
| CCOc1ccccc1CN1CCN(c2ccc(F)cc2)CC1 | inconclusive: 14% |
| COc1cc(NC(=S)NC[C@H]2C[C@@H]3CCN2C[C@@H]3c2cc(-c3ccc(OC)c(OC)c3)nn2C)cc(OC)c1 | inactive |
| Cc1c(N)c(=O)n(-c2ccccc2)n1C (tested in a mixture with another compound) | inconclusive: 12% |
| O=C(C1CCCCC1)N1C[C@@H]2C[C@H](C1)c1c(/C=C/c3ccc(Cl)cc3)ccc(=O)n1C2 | inconclusive: 18% |
| COc1ccc(-n2c(/C=C\c3ccccc3F)nc3ccccc3c2=O)c(OC)c1 | active: 30% |
| CCOC(=O)C1C2NC(=O)N(c3cccc(C)c3)C1(C)Oc1c(OC)cccc12 (centres undefined) | inactive |
| O=C(COc1ccccc1)N(O)C(C[N+](=O)[O-])c1ccccc1 (centres undefined) | inactive |
| Cc1nc2ccc(I)cc2c(=O)n1-c1ccc([N+](=O)[O-])cc1Cl | inconclusive: 22% |
| O=[N+]([O-])c1cccc(CN2CCN(Cc3ccccc3)CC2)c1 | inconclusive: 10% |
| Fc1ccccc1CN1CCN(c2cccc(Cl)c2)CC1 | inconclusive: 29% |
| O=C(NC[C@H]1C[C@@H]2CCN1C[C@@H]2CN1CCC(Cc2ccccc2)CC1)c1ccc2c(c1)OCO2 | inactive |
| O=S(=O)(NC[C@H]1C[C@@H]2CCN1C[C@@H]2CN1CCc2ccccc2C1)c1cccs1 | inactive |
| CCCSc1ncc(CN2CC[C@@]3(O)CCCC[C@H]3C2)cn1 | inconclusive: 18% |
| O=C(NC1CCCCC1)[C@H]1CN2CCC1C[C@@H]2Cn1cc(CO)nn1 (some centres undefined) | inconclusive: 10% |
| CCc1nn2c(=O)cc(CN3CCCC4(CNC(=O)O4)C3)nc2s1 (centres undefined) | inconclusive: 10% |
| Cc1ccsc1C(=O)C1CCCN(Cc2ccc(C#CC(C)(C)O)s2)C1 (centres undefined) | inconclusive: 16% |
| O=[N+]([O-])c1ccc(NCCCN2CCOCC2)c2cccnc12 | inactive |
| Cn1nc(-c2ccccc2)cc1[C@H]1CN2CC[C@H]1C[C@@H]2CNC(=O)Nc1cccc(C#N)c1 | inconclusive: 12% |
| CN1CCC2(CC1)CN(C(=O)Cc1c[nH]c3ccccc13)CCCN2C | inconclusive: 27% |

A draw from above in order of count of non-hydrogen atoms, largest number first:

| Structure (SMILES) | inhibition |
| --- | --- |
| COc1cc(NC(=S)NC[C@H]2C[C@@H]3CCN2C[C@@H]3c2cc(-c3ccc(OC)c(OC)c3)nn2C)cc(OC)c1 | inactive |
| O=C(C1CCCCC1)N1C[C@@H]2C[C@H](C1)c1c(/C=C/c3ccc(Cl)cc3)ccc(=O)n1C2 | inconclusive: 18% |
| CCc1nn2c(=O)cc(CN3CCCC4(CNC(=O)O4)C3)nc2s1 (centres undefined) | inconclusive: 10% |
| Cc1c(N)c(=O)n(-c2ccccc2)n1C (tested in a mixture with another compound) | inconclusive: 12% |

Additional compounds follow.

| Structure (SMILES) | inhibition |
| --- | --- |
| O=[N+]([O-])CC(c1ccco1)c1c(-c2ccccc2)[nH]c2ccccc12 (centres undefined) | inconclusive: 18% |
| Cc1[nH]c2ccccc2c1CCN | inconclusive: 13% |
| Cc1ccccc1CN1CCN(Cc2cccc(F)c2)CC1 | inconclusive: 11% |
| CC(C)(C)CC(=O)N1C[C@@H]2C[C@H](C1)c1ccc(NC(=O)c3ccco3)c(=O)n1C2 | inconclusive: 11% |
| CC1CN(c2ccccc2[N+](=O)[O-])CC(C)N1 (centres undefined) | inactive |
| C#C[C@H]1CN2CC[C@H]1C[C@@H]2CNC(=S)NCCN1CCOCC1 | inactive |
| Cc1ccc2c(c1)C1CN(C)CCC1N2 (centres undefined) | inconclusive: 26% |
| COc1ccc(S(=O)(=O)NC[C@H]2C[C@@H]3CCN2C[C@@H]3CN2CCN(c3ccccc3)CC2)cc1 | inconclusive: 14% |
| Nc1ccc(Cc2ccc(N)c(Cl)c2)cc1Cl | inconclusive: 16% |
| CC(C)(C)CC(=O)N1C[C@@H]2C[C@H](C1)c1ccc(NC(=O)COc3ccccc3)c(=O)n1C2 | inactive |
| O=C(NC1CC1)[C@H]1CN2CC[C@H]1C[C@@H]2Cn1cc(-c2ccccn2)nn1 | inconclusive: 17% |
| CC1Cc2cc3c(cc2C(c2ccc(N)cc2)=NN1)OCO3 (centres undefined) | inconclusive: 23% |
| O=[N+]([O-])c1ccc(O)c(CN2CCN(Cc3ccccc3)CC2)c1 | inconclusive: 18% |
| O=C(NC1CCCCC1)N1C[C@@H]2C[C@H](C1)c1ccc(-c3ccc(Cl)cc3)c(=O)n1C2 | inconclusive: 11% |
| COc1ccccc1CN1CCN(c2ccc([N+](=O)[O-])cc2)CC1 | inconclusive: 22% |
| CN1CCN(Cc2ccc(F)c(Br)c2)CC1 | inactive |
| O=c1c2ccccc2nc(-c2ccc([N+](=O)[O-])cc2)n1-c1ccccc1 | inconclusive: 18% |
| CN1CCC(c2c[nH]c3ccc(O)cc23)CC1 | inconclusive: 10% |
| CN(CCc1ccccn1)C[C@H]1CN2CC[C@H]1C[C@@H]2CNS(=O)(=O)c1ccccc1 | inconclusive: 12% |
| COCC(=O)NC[C@H]1C[C@@H]2CCN1C[C@@H]2CN1CCN(c2ccccc2OC)CC1 | inactive |

| Structure (SMILES) | inhibition |
| --- | --- |
| COc1cc(/C=C/[N+](=O)[O-])c(OC)cc1C | active: 42% |
| CC(C)(C)n1cc(C2=CCN(Cc3ccc4c(c3)OCO4)CC2)cn1 | inconclusive: 13% |
| Fc1ccc(CN2CCN(c3ccccc3)CC2)cc1Br | inconclusive: 13% |
| CN1[C@H]2CC[C@@H]1CN(C(=O)NC1CCCC1)CC2 | inactive |
| COc1ccccc1-c1cc([C@H]2CN3CC[C@H]2C[C@@H]3CNS(C)(=O)=O)nc(C)n1 | inconclusive: 10% |
| O=C(c1ccccc1)N1C[C@@H]2C[C@H](C1)c1ccc(C3CCCCC3)c(=O)n1C2 | inconclusive: 12% |
| O=[N+]([O-])c1ccc(N2CCN(Cc3cccc(Br)c3)CC2)cc1 | active: 32% |
| NCC(O)c1cc(O)c(O)cc1F (centres undefined) | inconclusive: 19% |
| Nc1cc2nc3ccccc3nc2cc1O | active: 56% |
| Cc1c(C(c2ccccc2)c2c(O)c3ccccc3oc2=O)c(=O)n(-c2ccccc2)n1C (centres undefined) | inactive |
| O=[N+]([O-])c1ccc(NCCCO)c2ncccc12 | inconclusive: 16% |
| CCOC(=O)C1C2NC(=O)N(c3cc(C)cc(C)c3)C1(C)Oc1c(OC)cccc12 (centres undefined) | inactive |
| Cc1[nH]c2ccc(F)cc2c1CCN | inconclusive: 10% |
| CCCS(=O)(=O)N1C[C@@H]2C[C@H](C1)c1c(-c3cccc(C#N)c3)ccc(=O)n1C2 | inconclusive: 11% |
| CN1CCN(Cc2ccoc2)CC1 | inconclusive: 10% |
| COc1ccccc1CC(C)NCc1ccc2nonc2c1 (centres undefined) | inconclusive: 12% |
| Cc1cccc(/C=C/c2nc3ccccc3c(=O)n2-c2cccc(O)c2)c1 | inconclusive: 12% |
| CCOc1cc(CN2CCN(c3ccc(F)cc3)CC2)ccc1O | inconclusive: 10% |
| CN1C(=O)C2(CCN(Cc3nc(-c4ccco4)no3)CC2)c2ccccc21 | inactive |
